No constants are given. Whether binding was seen depends on the method and setting. A result given as binding can be weak or reduced; the word gives no strength. Tags and fused reporters may be left off the sequences shown.

Chains of the proteins cited; added tags and fusions are not shown. Lines headed by an entry give the natural chain unless they say otherwise; changes in a name come on top.
UniProt P26232: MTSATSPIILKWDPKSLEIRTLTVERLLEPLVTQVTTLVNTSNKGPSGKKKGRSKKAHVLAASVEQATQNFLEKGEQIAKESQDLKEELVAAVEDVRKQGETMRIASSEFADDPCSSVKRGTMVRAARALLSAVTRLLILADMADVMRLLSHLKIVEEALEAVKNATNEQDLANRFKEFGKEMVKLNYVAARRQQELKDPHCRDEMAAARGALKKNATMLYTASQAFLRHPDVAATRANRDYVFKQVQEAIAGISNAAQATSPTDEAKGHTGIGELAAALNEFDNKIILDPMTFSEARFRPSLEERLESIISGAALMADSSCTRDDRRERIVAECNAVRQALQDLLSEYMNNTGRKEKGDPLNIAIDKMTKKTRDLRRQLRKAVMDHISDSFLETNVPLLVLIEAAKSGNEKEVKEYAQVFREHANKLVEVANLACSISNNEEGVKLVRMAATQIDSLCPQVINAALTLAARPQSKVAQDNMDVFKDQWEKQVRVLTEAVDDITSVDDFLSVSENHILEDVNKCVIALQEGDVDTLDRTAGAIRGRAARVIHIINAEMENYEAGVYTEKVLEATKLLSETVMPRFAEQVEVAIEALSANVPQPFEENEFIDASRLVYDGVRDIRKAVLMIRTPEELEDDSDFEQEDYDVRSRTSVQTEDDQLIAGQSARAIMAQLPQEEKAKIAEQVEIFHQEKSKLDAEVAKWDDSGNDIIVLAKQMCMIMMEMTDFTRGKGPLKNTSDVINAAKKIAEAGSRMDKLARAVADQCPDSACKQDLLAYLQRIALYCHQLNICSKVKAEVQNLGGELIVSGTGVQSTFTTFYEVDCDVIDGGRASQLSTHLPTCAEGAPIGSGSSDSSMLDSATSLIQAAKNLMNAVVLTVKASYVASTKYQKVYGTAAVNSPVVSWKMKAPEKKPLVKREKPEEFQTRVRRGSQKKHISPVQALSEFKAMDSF

The values that follow come from publication doi:10.1101/2025.08.21.671625, “α-catenin phosphorylation is actomyosin-sensitive and required for epithelial barrier functions through Afadin” (bioRxiv, 2025).

The target in the test is T1, GST-Afadin-Coiled-coil α-cat binding region (Afadin-CC-ABR; amino acids 1391–1449) (rat).
T1 sequence: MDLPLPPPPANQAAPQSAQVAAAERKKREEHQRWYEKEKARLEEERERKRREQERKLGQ
Put plainly: pull-down; GST-Afdn-CC-ABR (or GST control) pre-bound to glutathione resin, mixed with α-cat prey proteins, washed, eluted with free glutathione; interaction strength assessed by Coomassie staining; both purified.

Take “αN-cat M1–3 WT (from UniProt P26232) (domain or fragment)”: the binding result is on record as “binds weakly”.

With “αN-cat M2–3 WT (from UniProt P26232) (domain or fragment)”, the binding result is “binds”.
